Data on one substance can be found in publication PMC10639066.

The chains behind the UniProt entries cited, without tags or fusion partners.
UniProt O94992: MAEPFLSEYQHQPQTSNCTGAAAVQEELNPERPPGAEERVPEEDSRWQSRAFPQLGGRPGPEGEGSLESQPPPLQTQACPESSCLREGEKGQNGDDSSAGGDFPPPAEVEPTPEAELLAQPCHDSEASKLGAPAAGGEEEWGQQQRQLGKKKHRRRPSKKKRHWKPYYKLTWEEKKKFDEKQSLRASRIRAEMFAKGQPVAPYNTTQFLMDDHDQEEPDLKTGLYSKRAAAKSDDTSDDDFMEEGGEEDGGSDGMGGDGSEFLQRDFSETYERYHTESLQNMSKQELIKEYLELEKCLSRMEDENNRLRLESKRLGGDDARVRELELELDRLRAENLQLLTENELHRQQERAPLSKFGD
UniProt P50750: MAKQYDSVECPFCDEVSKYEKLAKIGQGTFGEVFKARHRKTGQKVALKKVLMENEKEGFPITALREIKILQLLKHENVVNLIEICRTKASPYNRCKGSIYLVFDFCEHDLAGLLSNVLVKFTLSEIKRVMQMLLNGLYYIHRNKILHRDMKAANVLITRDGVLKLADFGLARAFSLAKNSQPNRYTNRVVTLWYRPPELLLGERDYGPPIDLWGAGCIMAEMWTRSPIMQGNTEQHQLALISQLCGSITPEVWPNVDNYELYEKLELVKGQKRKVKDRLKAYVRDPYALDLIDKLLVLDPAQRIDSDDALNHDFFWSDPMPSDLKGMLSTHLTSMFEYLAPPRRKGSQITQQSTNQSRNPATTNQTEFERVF

The test concerns the target HEXIM1 (human (endogenous in HCT116)) (UniProt O94992). As to the kind of experiment: co-IP; anti-HEXIM1 antibody on Dynabeads Protein G incubated overnight at 4 °C with whole-cell extracts of HCT116 or HCT116 CDK12as/as cells (lysis buffer C: 20 mM Tris-HCl, 0.5% NP-40, 150 mM NaCl, 1.5 mM MgCl2, 10 mM KCl, 10% glycerol, 0.5 mM EDTA, pH 7.9); CDK9 and HEXIM1 detected by Western …; cells treated beforehand with DMSO, THZ531 (300 or 400 nM), THZ532 (400 nM), 3-MB-PP1 or KU-60019 (5 μM).

No constants are given. Whether binding was seen depends on the method and setting. In cells and extracts the contact can be indirect. Some binding calls cover weakened binding; strength is not graded here.

Regarding “CDK9 (from UniProt P50750 1-372) (enzyme)”, the binding entry is listed as “binds”.
